Results are given in words; binding and its absence hold for the method and conditions named. Binding seen in cells or lysates may run through a third protein.
Biological target: DNA-PK catalytic subunit (human (endogenous in MDAH-2774, TOV-112D, SKOV-3, TOV-21G cells and primary HG-EOC tumours)) (UniProt P78527)
Test: co-IP; endogenous proteins in total lysates of MDAH (p53^R273H) and TOV-112D (p53^R175H) cells, SKOV-3 (p53 null) and control IgG as negative controls; in MDAH also after stathmin shRNA (interaction significantly impaired, IP anti-p53) and after 3 h CBDCA (twofold more p53 bound to DNA-PK, IP anti-DNA-PK)

Protein sequences, listed by entry. Tags and fused reporters are not part of them.
UniProt P78527: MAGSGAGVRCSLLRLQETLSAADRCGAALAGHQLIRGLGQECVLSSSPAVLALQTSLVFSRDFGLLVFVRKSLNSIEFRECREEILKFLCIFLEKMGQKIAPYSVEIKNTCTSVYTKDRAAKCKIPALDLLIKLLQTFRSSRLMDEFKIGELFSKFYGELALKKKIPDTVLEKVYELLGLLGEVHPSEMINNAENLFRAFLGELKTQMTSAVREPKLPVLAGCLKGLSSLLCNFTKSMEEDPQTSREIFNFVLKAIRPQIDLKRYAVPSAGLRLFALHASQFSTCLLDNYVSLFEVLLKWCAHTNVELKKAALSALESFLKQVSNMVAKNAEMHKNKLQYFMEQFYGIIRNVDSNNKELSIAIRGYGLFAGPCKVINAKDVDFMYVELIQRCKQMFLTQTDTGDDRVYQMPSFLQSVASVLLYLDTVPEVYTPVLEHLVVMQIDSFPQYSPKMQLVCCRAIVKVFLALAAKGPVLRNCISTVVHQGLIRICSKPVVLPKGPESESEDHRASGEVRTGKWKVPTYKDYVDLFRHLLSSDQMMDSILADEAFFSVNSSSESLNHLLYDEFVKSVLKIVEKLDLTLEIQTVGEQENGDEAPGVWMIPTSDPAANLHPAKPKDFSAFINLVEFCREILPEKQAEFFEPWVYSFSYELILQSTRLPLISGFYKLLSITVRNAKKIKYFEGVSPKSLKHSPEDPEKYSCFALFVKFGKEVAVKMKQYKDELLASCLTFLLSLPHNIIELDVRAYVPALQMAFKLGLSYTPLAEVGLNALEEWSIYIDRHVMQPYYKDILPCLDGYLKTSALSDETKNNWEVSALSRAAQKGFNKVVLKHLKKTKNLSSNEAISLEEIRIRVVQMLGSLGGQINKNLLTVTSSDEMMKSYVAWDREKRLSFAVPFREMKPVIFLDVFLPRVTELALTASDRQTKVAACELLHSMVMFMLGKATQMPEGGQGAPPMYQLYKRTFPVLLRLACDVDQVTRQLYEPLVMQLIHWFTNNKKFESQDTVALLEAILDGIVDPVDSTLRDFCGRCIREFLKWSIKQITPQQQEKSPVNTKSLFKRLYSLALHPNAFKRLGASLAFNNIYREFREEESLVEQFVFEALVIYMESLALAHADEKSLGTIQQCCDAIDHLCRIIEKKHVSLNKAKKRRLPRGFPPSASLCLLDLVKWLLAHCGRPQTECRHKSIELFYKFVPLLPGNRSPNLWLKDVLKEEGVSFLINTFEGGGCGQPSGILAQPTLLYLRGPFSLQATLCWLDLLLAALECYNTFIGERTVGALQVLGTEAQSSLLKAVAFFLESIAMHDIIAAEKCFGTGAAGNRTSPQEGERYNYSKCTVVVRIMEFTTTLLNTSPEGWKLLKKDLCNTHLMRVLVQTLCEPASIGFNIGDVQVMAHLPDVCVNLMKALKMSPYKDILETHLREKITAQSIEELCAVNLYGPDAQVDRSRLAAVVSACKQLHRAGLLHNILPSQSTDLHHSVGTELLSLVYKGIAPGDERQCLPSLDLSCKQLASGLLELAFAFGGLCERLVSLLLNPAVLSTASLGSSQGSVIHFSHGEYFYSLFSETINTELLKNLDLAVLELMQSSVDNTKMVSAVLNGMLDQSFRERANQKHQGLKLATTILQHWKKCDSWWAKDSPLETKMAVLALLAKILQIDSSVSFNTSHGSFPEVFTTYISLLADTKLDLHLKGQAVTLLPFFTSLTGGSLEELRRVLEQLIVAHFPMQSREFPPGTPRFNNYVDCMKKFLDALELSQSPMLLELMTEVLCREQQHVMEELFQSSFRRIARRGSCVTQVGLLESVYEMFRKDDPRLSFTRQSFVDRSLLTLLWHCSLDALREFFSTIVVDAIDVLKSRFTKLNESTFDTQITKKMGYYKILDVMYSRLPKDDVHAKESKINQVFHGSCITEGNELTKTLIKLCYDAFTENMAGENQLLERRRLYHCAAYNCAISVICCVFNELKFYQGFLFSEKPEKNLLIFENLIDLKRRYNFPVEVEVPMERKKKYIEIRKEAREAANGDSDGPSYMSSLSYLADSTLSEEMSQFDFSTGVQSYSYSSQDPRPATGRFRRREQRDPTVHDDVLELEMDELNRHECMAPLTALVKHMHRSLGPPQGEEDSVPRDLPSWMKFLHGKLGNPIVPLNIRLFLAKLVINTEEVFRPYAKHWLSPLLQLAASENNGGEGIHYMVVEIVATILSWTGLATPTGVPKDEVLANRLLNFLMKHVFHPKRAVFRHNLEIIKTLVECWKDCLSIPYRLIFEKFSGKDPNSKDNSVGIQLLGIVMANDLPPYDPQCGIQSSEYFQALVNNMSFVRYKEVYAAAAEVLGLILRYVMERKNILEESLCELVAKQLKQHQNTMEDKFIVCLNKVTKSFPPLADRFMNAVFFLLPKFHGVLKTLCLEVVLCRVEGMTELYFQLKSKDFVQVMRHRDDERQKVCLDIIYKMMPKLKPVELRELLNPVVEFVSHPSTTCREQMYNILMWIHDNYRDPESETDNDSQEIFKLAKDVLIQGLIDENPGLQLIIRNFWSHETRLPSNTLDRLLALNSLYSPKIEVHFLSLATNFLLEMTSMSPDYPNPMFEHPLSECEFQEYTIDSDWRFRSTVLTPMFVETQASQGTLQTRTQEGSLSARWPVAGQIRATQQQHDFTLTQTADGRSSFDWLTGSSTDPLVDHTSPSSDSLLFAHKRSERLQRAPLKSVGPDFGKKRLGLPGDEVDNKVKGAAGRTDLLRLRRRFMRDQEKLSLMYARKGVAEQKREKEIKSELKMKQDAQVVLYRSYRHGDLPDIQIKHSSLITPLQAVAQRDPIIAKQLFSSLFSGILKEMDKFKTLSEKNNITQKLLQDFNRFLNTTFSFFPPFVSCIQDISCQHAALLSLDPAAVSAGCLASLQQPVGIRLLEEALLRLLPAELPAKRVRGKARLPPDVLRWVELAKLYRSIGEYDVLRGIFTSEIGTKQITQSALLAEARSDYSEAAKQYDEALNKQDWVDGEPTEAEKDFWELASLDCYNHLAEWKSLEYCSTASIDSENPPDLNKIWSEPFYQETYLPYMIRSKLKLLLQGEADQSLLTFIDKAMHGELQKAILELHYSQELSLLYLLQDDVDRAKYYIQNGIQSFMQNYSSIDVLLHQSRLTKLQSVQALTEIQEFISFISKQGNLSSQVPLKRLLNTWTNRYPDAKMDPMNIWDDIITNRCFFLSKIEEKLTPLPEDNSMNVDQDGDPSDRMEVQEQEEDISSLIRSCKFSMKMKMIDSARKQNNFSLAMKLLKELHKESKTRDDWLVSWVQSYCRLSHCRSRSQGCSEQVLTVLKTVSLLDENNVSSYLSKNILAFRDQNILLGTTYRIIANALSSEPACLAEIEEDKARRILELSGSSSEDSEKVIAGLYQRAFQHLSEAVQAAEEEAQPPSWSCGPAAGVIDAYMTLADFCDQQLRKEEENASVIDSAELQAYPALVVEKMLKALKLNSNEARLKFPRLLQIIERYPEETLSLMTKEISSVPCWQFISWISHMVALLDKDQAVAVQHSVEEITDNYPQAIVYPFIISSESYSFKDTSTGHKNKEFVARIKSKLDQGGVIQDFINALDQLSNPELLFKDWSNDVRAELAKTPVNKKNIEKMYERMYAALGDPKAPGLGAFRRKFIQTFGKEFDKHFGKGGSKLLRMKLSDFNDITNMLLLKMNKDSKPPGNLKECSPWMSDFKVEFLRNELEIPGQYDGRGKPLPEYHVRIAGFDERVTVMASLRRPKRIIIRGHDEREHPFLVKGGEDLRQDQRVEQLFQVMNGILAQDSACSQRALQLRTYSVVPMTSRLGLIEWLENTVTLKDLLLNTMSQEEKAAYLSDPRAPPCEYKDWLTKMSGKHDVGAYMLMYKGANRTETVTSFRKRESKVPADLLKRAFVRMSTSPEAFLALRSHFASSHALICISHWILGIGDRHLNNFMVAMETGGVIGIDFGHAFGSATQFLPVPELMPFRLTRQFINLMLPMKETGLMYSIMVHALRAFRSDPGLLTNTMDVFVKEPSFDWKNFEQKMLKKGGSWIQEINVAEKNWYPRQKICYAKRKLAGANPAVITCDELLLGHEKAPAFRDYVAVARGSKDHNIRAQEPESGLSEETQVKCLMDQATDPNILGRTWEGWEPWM

B1: stathmin 1 (protein, UniProt P16949 1-149)
chain: MASSDIQVKELEKRASGQAFELILSPRSKESVPEFPLSPPKKKDLSLEEIQKKLEAAEERRKSHEAEVLKQLAEKREHEKEVLQKAIEENNNFSKMAEEKLTHKMEANKENREAQMAAKLERLREKDKHIEEVRKNKESKDPADETEAD
- binding: no binding

— publication PMC3662314
